Article PMC11732086 (2024)
Results are given in words; binding and its absence hold for the method and conditions named. Binding calls can cover weak binding; strength is not graded here. Where a sequence is shown, tags or fusion partners need not be part of it.

Molecular target: T1, BD-OsTORFRB (rice) (UniProt Q0DJS1)
T1 sequence: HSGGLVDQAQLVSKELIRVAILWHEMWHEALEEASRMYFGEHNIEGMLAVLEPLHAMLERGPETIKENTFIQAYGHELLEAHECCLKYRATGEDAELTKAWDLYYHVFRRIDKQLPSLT
Test: two-hybrid; double transformation of BD (pGBKT7) and AD (pGADT7) vectors in yeast; growth on QDO (SD-Leu-Trp-His-Ade) against DDO (SD-Leu-Trp); 200 μL (normal) or 600 μL (high) inoculation; blue colonies with X-α-Gal

- binding: binds weakly
Substance: AD-OsFKBP12 (full length, 1-112 AA) (rice)
